Data as given in PubChem BioAssay AID1508587 (Peter MacCallum Cancer Centre, 2020)

Screen: 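Retest of knockdowns boosting BRAF inhibitor action on lactate release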 (follow-up of hits)
Cells: human WM266.4 melanoma cells with a BRAF V600 mutation
Reagents: single siRNA against human genes, 25 nM
Timing: 96 h
Conditions: vemurafenib 300 nM (about IC25), given 48 h after transfection for 48 h
Read-out: 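Per-cell lactate from absorbance divided by DAPI nucleus counts, compared with and without vemurafenib, relative to non-targeting siRNA, mean of 2 replicates; nuclear counts also give cell number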
Reading the numbers: lactate per cell, drug vs no drug: higher = less drug-induced drop in lactate per cell
Call rule: 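Enhancer call for any duplex whose drug versus no-drug per-cell lactate ratio is below 0.55 (2 SD beneath non-targeting average); genes confirmed when at least 2 of their 4 duplexes qualify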
This is an unselected part of about 1,600 reagents. 623 of them (39%) were called active. 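Calls are for each duplex; lactate ratios contain extreme outliers.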 A number with no mark means an inactive call. The numbers tell different reagents against one gene apart. Not all columns of the deposit are shown. Reagent sequences are not shown.

RPL29 (GeneID 6159) #1 scored lactate per cell, drug vs no drug 0.38 (active).
Knock-down of RPL29 (GeneID 6159) #2 came out at: lactate per cell, drug vs no drug 0.74.
For RPL29 (GeneID 6159) #3 the deposit lists lactate per cell, drug vs no drug 0.55.
Knock-down of RPL29 (GeneID 6159) #4 gave: lactate per cell, drug vs no drug 0.55.
For KATNB1 (GeneID 10300) #1, the entry reads lactate per cell, drug vs no drug 0.74.
With knock-down of KATNB1 (GeneID 10300) #2 the results were lactate per cell, drug vs no drug 0.53 (active).
Depletion of KATNB1 (GeneID 10300) #3 resulted in: lactate per cell, drug vs no drug 0.74.
KATNB1 (GeneID 10300) #4 gave lactate per cell, drug vs no drug 0.54 (active).
Silencing of CPNE1 (GeneID 8904) #1 came out at: lactate per cell, drug vs no drug 0.6.
Knock-down of CPNE1 (GeneID 8904) #2 gave: lactate per cell, drug vs no drug 0.26 (active).
Silencing of CPNE1 (GeneID 8904) #3 came out at: lactate per cell, drug vs no drug 0.57.
CPNE1 (GeneID 8904) #4 scored lactate per cell, drug vs no drug 1.
After knock-down of SELENBP1 (GeneID 8991) #1, the screen gave lactate per cell, drug vs no drug 0.62.
SELENBP1 (GeneID 8991) #2 showed lactate per cell, drug vs no drug 0.66.
SELENBP1 (GeneID 8991) #3 showed lactate per cell, drug vs no drug -0.74 (active).
SELENBP1 (GeneID 8991) #4 showed lactate per cell, drug vs no drug 0.6.
With knock-down of PRY2 (GeneID 442862) #1 the results were lactate per cell, drug vs no drug 0.84.
PRY2 (GeneID 442862) #2 showed lactate per cell, drug vs no drug 0.52 (active).
Against PRY2 (GeneID 442862) #3, the entry reads lactate per cell, drug vs no drug 0.64.
PRY2 (GeneID 442862) #4 gave lactate per cell, drug vs no drug 0.63.
GIPC1 (GeneID 10755) #1 scored lactate per cell, drug vs no drug 0.62.
GIPC1 (GeneID 10755) #2 scored lactate per cell, drug vs no drug 0.82.
After knock-down of GIPC1 (GeneID 10755) #3, the screen gave lactate per cell, drug vs no drug 0.86.
After knock-down of GIPC1 (GeneID 10755) #4 the results were lactate per cell, drug vs no drug 1.
Silencing of SELENOF (GeneID 9403) #1 came out at: lactate per cell, drug vs no drug 0.44 (active).
With knock-down of SELENOF (GeneID 9403) #2, the record shows lactate per cell, drug vs no drug 0.55.
After knock-down of SELENOF (GeneID 9403) #3, the screen gave lactate per cell, drug vs no drug 0.56.
Against SELENOF (GeneID 9403) #4 the deposit lists lactate per cell, drug vs no drug 0.46 (active).

Entries listed so far with an active call:
RPL29 (GeneID 6159) #1 — lactate per cell, drug vs no drug = 0.38 (active)
KATNB1 (GeneID 10300) #2 — lactate per cell, drug vs no drug = 0.53 (active)
KATNB1 (GeneID 10300) #4 — lactate per cell, drug vs no drug = 0.54 (active)
CPNE1 (GeneID 8904) #2 — lactate per cell, drug vs no drug = 0.26 (active)
SELENBP1 (GeneID 8991) #3 — lactate per cell, drug vs no drug = -0.74 (active)
PRY2 (GeneID 442862) #2 — lactate per cell, drug vs no drug = 0.52 (active)
SELENOF (GeneID 9403) #1 — lactate per cell, drug vs no drug = 0.44 (active)
SELENOF (GeneID 9403) #4 — lactate per cell, drug vs no drug = 0.46 (active)
